Measurements from PubChem BioAssay AID1508600 (Functional Genomics Laboratory (NCATS/FGL), 2020).
Among all 53,000 sequences or so, about 3,700 (7%) were called active.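 Rule for the calls: active = gene knockdowns whose robust z-score for IL-1 alpha signal is at least 2 or at most -2, so actives lie on both sides; inactive = the rest.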 Some of the results follow.

Experiment: Components of the Cytosolic LPS Sensing Pathway: Gene Identification via Genome-wide siRNA Screen;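 note: robust z of the log signal after scaling to non-targeting control siRNA wells of the plate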
Conditions: RAW264.7 macrophages, IL-1a HTRF, actives lie on both sides, screened at 100 nM (by protocol), cells primed 5 h with Pam3CSK4 first
How it was run: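 RAW264.7; siRNA 100 nM final, RNAiMAX, 48h 37 degrees C; Pam3CSK4 5 h; LipidA + TransIT-TKO 24 h; IL-1a HTRF; CellTiter-Glo viability; robust z vs negative-control median.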

Row | Sequence | z-score
1 | GGAUGACAUCCAGACCAUGTT against Calcoco1 | inactive: 0.715
2 | GCUUCCAAUUACUUAUCCATT against Phc3 | inactive: -0.0705
3 | GCUUCGUGGGUGAAGGAUATT against Ofcc1 | inactive: -1.21
4 | GGCCAUUUGUCACAUAUGUTT against Tyk2 | inactive: -0.436
5 | GCUUCACGUUGGCUUUCCUTT against Vmn2r123 | inactive: 0.306
6 | GGAAUAAUCAAGCUAGGGATT against Satb2 | active: -2.2
7 | GCCCUACAAAAAAGUUAUUTT against Bnip2 | inactive: 0.889
8 | GGUGCACAUUCAGAACGAUTT against Dtd1 | inactive: -0.613
9 | GGCUCAUGUGGUAUAGAAATT against Il1rapl2 | inactive: 0.0445
10 | GCUGUACCCAUCUGAUCACTT against Galnt15 | inactive: 0.618
11 | GGCUCUUCGAGACUUUGAGTT against Pde4dip | inactive: -0.362
12 | CCUAUCAAGGCCAAUUCACTT against Jph2 | inactive: 0.00908
13 | GGUAGAAAAGAAAAAGACCTT against Stc1 | inactive: 1.27
14 | CCUGGAGGAGUAUUUACACTT against H2-Ob | inactive: -1.17
15 | GCCCGAUGUCAUGUGGACATT against Eya2 | inactive: -0.895
16 | CCUUUACGUUUCUGUGUCUTT against Slc37a4 | inactive: -1.19
17 | GGUGGUCCUGGAUCUUUAUTT against Spon2 | inactive: -0.986
18 | GGAUCUGCUCUCUUAGAAGTT against Gzmn | inactive: -0.351
19 | GGUACACUACAUGACUCAUTT against Sall4 | active: 2.35
20 | GCAUGUCCGUUUAUGUCACTT against Trp53inp2 | inactive: -0.00352
21 | GGCAGGAUCCUUUUCUCUATT against Als2 | inactive: -1.44
22 | GCAGACUCCAUGCAAAACUTT against Slc5a8 | inactive: 0.133
23 | GGAUUACUGAUCUCCAAAATT against Cenpe | inactive: 0.835

Exported as tab-separated lines: entries from further up.
Row	Sequence	z-score
3	GCUUCGUGGGUGAAGGAUATT against Ofcc1	inactive: -1.21
9	GGCUCAUGUGGUAUAGAAATT against Il1rapl2	inactive: 0.0445

(further entries)

Row | Sequence | z-score
24 | GGAGAACUUUGAUAUGGAGTT against Cuedc2 | inactive: -0.365
25 | GCCAACUAUACAUCUUAUCTT against Sftpa1 | inactive: 0.915
26 | CUUUGAGCUUGGAAGUAAATT against Mup21 | inactive: 0.294
27 | GGAUCAUUAACCCUGAAAUTT against Dscam | inactive: -0.723
28 | GGAGAUGACAAAUCUAGUGTT against Smgc | inactive: 0.835
29 | GCAUUAAGCAAUGGCAUCATT against Cbfa2t2 | inactive: 0.21
30 | GGUGCUUCUAAACUCAGAGTT against Spg20 | inactive: 0.482
31 | GGGAAAGGAAGUUGUUUUGTT against Epha2 | inactive: 0.878
32 | CCAGGUAUUCUGAUAUCAGTT against Cd209d | inactive: 0.713
33 | GGACUGUUCAUUGAUUGUATT against Sugct | inactive: 1.47
34 | GCCUUGAUCCUACUGUAACTT against Amigo3 | active: 2.12
35 | GGACUAUCUAGCAUAUACUTT against E130006D01Rik | inactive: 0.788
36 | GGCUGUUUUUGCCGGUAUCTT against Teddm3 | inactive: 1.58
37 | GGGACUAAUUCCAAUUUCATT against Pomt1 | inactive: 0.279
38 | GGGAUCAUAAAGAUAACUUTT against Fasn | active: 2.2
39 | GGCCCUUCUACAGAAGUUCTT against Pld4 | inactive: -0.0788
40 | GGAGCAUAGAAAAGACAAUTT against Grk2 | active: 2.69
41 | GGCAGUGGAGCUGGACAAATT against Nkx2-5 | active: 2.45
42 | GGCCAAGUUUGACAAGGAATT against Nap1l5 | active: 2.32
43 | GCGGGUCAUAAAUCUGAUUTT against Aldh3a1 | inactive: 1.11
44 | GCUGAAACGAUUUCUUACUTT against Runx1t1 | inactive: 0.248
45 | GGAGGACAUAAAAUAUCUATT against Trim17 | inactive: -0.0172
46 | GGCGGUUCAAAUGUCCUCATT against Fut2 | active: -2.02

2 records drawn at random from those above, as already listed:
Row | Sequence | z-score
34 | GCCUUGAUCCUACUGUAACTT against Amigo3 | active: 2.12
27 | GGAUCAUUAACCCUGAAAUTT against Dscam | inactive: -0.723

(cont.)

Row | Sequence | z-score
47 | GCCAUUUUUGAUGGUAUACTT against Atp6v1a | inactive: -0.411
48 | AGCCAAAGAAUGCAAAACATT against Snrpn | inactive: -1.13
49 | AGCUAAAAGAUCAUUGGAGTT against Ear10 | inactive: 0.358
50 | GGAAGCCAAACAGUUAUUUTT against Drosha | inactive: -1.08
51 | AACAUGUCCAACCUAGGCATT against Lefty1 | inactive: -1.44
52 | GCCAGUGUCCCUAAUAAGGTT against Ager | inactive: 0.2
53 | GGAAUUCAUGGAUAAGAAGTT against Hnmt | inactive: 0.191
54 | GGUGCACACAAUAAAUUAATT against Fcgr3 | inactive: -0.173
55 | GGUGUAUGAGUUUGAGUUUTT against Lacc1 | inactive: -0.849
56 | GCUAACGGUGUAACCAAGATT against Dennd2c | inactive: 1
57 | GGAUUCUUGGCUUUAAGACTT against Smg7 | inactive: 1.54
58 | GGCUCGAAGGAAAUGAGUUTT against Dppa3 | inactive: 1.28
59 | CCUGUUCAUAUGUAGUGCATT against Cox16 | inactive: -1.35
60 | GCACAACUUUGAGGUGUGGTT against Plekha4 | inactive: 0.292
61 | GGUGUACCUACAGUUAUGGTT against Marchf8 | inactive: 0.0777
62 | GCAGCUAGCAUAUAAUAACTT against Il21r | inactive: -0.186
63 | GGUACCAUAUGAGAGCUAATT against Tsr2 | active: 2.7
64 | AUUGUAGCAGUGAAUUGGATT against Pdia6 | inactive: -0.121
65 | GUGUCCUGACCAGGGUUCUTT against Gpr31b | inactive: 0.311
66 | CCAAAUGUAACUGGUGUAATT against Aif1l | inactive: -0.69
67 | UGUGGUCUUAGAAUCUAGCTT against Tdpoz3 | active: 4.49
68 | GCACAAUCCGGUCAACAUGTT against Zbp1 | inactive: 1.22
69 | GGCCUUUUCUCAUCUCUGGTT against Igfals | inactive: -1.57
